In publication doi:10.1101/2020.09.10.287607 (bioRxiv, 2020):
Where two headings read alike, the source gives them in different places. Results are given in words; binding and its absence hold for the method and conditions named. Some entries that bind do so weakly or less than the wild type.

Chains of the proteins cited; added tags and fusions are not shown. Residues count along the entry.
UniProt Q6UXX9, residues 22-243: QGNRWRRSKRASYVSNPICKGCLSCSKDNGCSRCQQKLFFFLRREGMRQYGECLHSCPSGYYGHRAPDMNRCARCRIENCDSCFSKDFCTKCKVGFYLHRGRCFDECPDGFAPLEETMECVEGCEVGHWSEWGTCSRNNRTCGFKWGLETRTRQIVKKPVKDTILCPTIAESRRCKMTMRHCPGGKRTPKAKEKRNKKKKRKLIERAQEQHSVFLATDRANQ

What was measured:
Assay in all cases: in vitro binding assay
[1] = molecular target: recombinant human RSPO2 (Peprotech 120-43) (human) (UniProt Q6UXX9)
[2] = molecular target: T1, recombinant human RSPO3 (Peprotech 120-44) (human) (UniProt Q9BXY4)
T1 sequence: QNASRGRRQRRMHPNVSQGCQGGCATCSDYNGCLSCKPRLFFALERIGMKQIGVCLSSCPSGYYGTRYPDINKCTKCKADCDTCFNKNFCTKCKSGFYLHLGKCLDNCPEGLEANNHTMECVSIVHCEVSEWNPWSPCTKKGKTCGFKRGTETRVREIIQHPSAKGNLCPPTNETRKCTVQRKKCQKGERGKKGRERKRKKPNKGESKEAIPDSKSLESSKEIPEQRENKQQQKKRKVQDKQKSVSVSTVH

[3] = molecular target: recombinant human RSPO2 (Peprotech 120-43) (human) (UniProt Q6UXX9); remark: listed apart in the source
[4] = molecular target: T1, recombinant human RSPO3 (Peprotech 120-44) (human); remark: listed apart in the source

Measured: binding

B1: BMPR1A^ECD-AP (domain or fragment, UniProt P36894 24-152, looked up)
chain: QNLDSMLHGTGMKSDSDQKKSENGVTLAPEDTLPFLKCYCSGHCPDDAINNTCITNGHCFAIIEEDDQGETTLASGCMKYEGSDFQCKDSPKAQLRRTIECCRTNLCNQYLQPTLPPVVIGPFFDGSIR
binds: all assays above
